The results in this text go back to the supplement of paper PMC12823440, “Inhibitors supercharge kinase turnover through native proteolytic circuits” (Nature, 2025).

Counter-ions that a name gives are not always drawn. This is one part of the list. Hit calls seldom repeat between salt and free forms of one compound.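 Kinases were expressed as nanoluciferase fusions in K562 cells and luminescence was read every 4 h between 2 and 18 h as percent of control, DMSO set to 100% and a positive control to 0%. A time point counts as decreased when the signal drops significantly (2 sigma). The hit call is the authors' own, does not follow from the count of time points alone, and its rule is not shown.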

The target of this assay is MAP2K2 (UniProt P36507). As to the kind of experiment: number of time points (of 5) at which kinase-Nluc abundance scored as decreased, DMSO-normalised (count); higher = more persistent destabilization. To be noted: K562; 2-18 h.
Consider `C=C(CCC=C(C)C)[C@H]1CC[C@]2(C)[C@@H]1[C@H](O)C[C@@H]1[C@@]3(C)CC[C@H](O[C@@H]4O[C@H](CO)[C@@H](O)[C@H](O)[C@H]4O[C@@H]4O[C@H](CO)[C@@H](O)[C@H](O)[C@H]4O)C(C)(C)[C@@H]3CC[C@]12C` [Ginsenoside Rk1] (10 µM), for which the “number of time points” value was determined as 0.

For `CCn1c(=O)c(-c2ccc(-c3cncs3)cc2Cl)cc2cnc(Nc3ccc(N4CCN(C)CC4)cc3)nc21` (2.5 µM), the “number of time points” value turned out to be 0. Next, `Nc1nccc(Oc2ccc(NC(=O)c3cn(COP(=O)(O)O)cc(-c4ccc(F)cc4)c3=O)cc2F)c1Cl` (10 µM): 0; `Cc1cc(-c2cc(OC(=O)c3ccccc3)ccc2Cl)cc2nnc(Nc3ccc(OCCN4CCCC4)cc3)nc12` (0.5 µM): 0.

Turning to `OC[C@H]1O[C@@H](Oc2cc3c(O)cc(O)cc3[o+]c2-c2cc(O)c(O)c(O)c2)[C@H](O)[C@@H](O)[C@@H]1O` [Delphinidin 3-glucoside (chloride)] (10 µM), the “number of time points” value is 0. Next, `O=C(/C=C/c1ccc(O)c(O)c1)c1ccc(O[C@@H]2O[C@H](CO)[C@@H](O)[C@H](O)[C@H]2O)c(O)c1O` [Marein] (10 µM): 0. The figure for `O=C1Nc2nc(-c3c(O)cccc3OCC3CC3)cc([C@@H]3CCCNC3)c2CO1` [Bay 65-1942 (hydrochloride)] (10 µM) is 0.

`CC(C)CN(CC(=O)N1CCN(CC(OCc2ccc3ccccc3c2)c2ccc(Cl)cc2Cl)CC1)CC(C)C` (centres undefined) [LYN-1604 (dihydrochloride)] (2.5 µM): the “number of time points” value worked out at 0. As for `CCc1cc(O)c(F)cc1-c1ccc2c(-c3nc4c([nH]3)CN(C3CCN(C)CC3)CC4)n[nH]c2c1` [JAK-IN-5 (hydrochloride)] (2 µM), the “number of time points” value is 0. Next, `Cc1ccc(Nc2cc(-c3cccc(N4C(=O)c5ccccc5C4=O)c3)ncn2)cc1NS(C)(=O)=O` (10 µM): 0; `C=C1C(=O)O[C@@H]2C[C@@]3(C)CCC[C@H](C)C3=C[C@H]12` [Alantolactone] (10 µM): 0.

For `C=C(C)C(=O)Nc1cccc(-c2ncnc3[nH]cc(C(=O)OCC)c23)c1` (10 µM), the “number of time points” value was 0. The figure for `CNc1nc(Nc2cnn(C3CCN(C4COC4)CC3F)c2Cl)ncc1C(F)(F)F` (centres undefined) (10 µM) is 0; for `Cc1cc(Nc2cc(Cl)nc(Oc3ccc([N+](=O)[O-])cc3)n2)n[nH]1` [Autophinib] (2.5 µM) it is 0. In the case of `CC(C)=CC[C@H](O)C1=CC(=O)c2c(O)ccc(O)c2C1=O` [(-)-Alkannin] (2.5 µM), the “number of time points” value was found to be 0. On to `CNCc1ccccc1-c1csc([C@@H](C)Nc2nc(C)nc3cc(OC)c(OC)cc23)c1` (2.5 µM), for which the “number of time points” value came out at 0. The figure for `COc1ncc(-c2nc(N3CCOCC3)nc3c(CN4CCC(C(C)(C)O)CC4)cc(F)cc23)cc1NS(C)(=O)=O` [Linperlisib] (10 µM) is 0. The figure for `O=C(Nc1ccc(F)cc1F)[C@H](NC(=S)Nc1cc(C(F)(F)F)cc(C(F)(F)F)c1)c1ccccc1` (2.5 µM) is 0. As for `O=C1NC(=O)C(=Cc2ccc(-c3ccc(F)cc3)o2)S1` (stereo in doubt) (10 µM), the “number of time points” value turned out to be 0. Next, `CCOc1cc(C(=O)N2CCC(N3CCN(C)CC3)CC2)ccc1Nc1ncc2c(n1)N(C1CCCC1)c1ccccc1C(=O)N2C` (10 µM): 0. The figure for `OC(COc1ccc(C(F)(F)F)cc1)CN(Cc1ccccc1)Cc1ccccc1` (centres undefined) (2.5 µM) is 0; for `C[C@@H]1C(=O)O[C@H](C)[C@H]1C[C@@H](O)[C@](C)(O)[C@H]1CC[C@@]2(O)C3=CC(=O)[C@@H]4C[C@@H](O)[C@@H](O)C[C@]4(C)[C@H]3CC[C@]12C` [Cyasterone] (10 µM) it is 0; for `Cc1c(CN2CCN(C(=O)[C@H](C)O)CC2)sc2c(N3CCOCC3)nc(-c3cnc(N)nc3)nc12` [Apitolisib] (10 µM) it is 0.

For the molecule `CC(C)(C)NC(=O)c1cncn1C1CCN(c2ccc(-c3nnc(C(F)(F)F)o3)cn2)CC1` (10 µM), the “number of time points” value amounted to 0.

`NCc1ccc(Nc2ncc(F)c(Nc3ccccc3)n2)cc1` (10 µM): the “number of time points” value was determined as 0. Next, `COC1(c2sc3c(N4CCOCC4)nc(-c4cnc(N)nc4)nc3c2C)COC1` (2.5 µM): 0. Next, `COc1cc2c[n+](C)c3c4cc5c(cc4ccc3c2cc1OC)OCO5` [Nitidine (chloride)] (2 µM): 0; `N#Cc1ccc2ncnc(NC3CCC(N4CCOCC4)CC3)c2c1` (centres undefined) (10 µM): 0; `COc1ccc2c(c1O)OC(C)(C)c1c-2ccc2c1C(=O)N(c1ccc(C(=O)c3ccccc3)cc1)C2=O` [Ampkinone] (10 µM): 0. The figure for `CC1=C2C(=O)O[C@@H](c3ccoc3)[C@]2(C)CCC1` [Fraxinellone] (10 µM) is 0; for `CS(=O)(=O)c1ccc(-c2cnc(N)c(C(=O)Nc3ccccc3)n2)cc1` (10 µM) it is 0; for `O=C(NC(NC(=S)Nc1ccc(F)c([N+](=O)[O-])c1)C(Cl)(Cl)Cl)C(c1ccccc1)c1ccccc1` (centres undefined) (10 µM) it is 0. On to `COc1cc(C(N)=O)nc(-c2cccc(C#C[C@]3(O)CCN(C)C3=O)c2)c1` (10 µM), for which the “number of time points” value came to 0. The figure for `O=C(Nc1cc(Oc2cc(F)c(NC(=O)C3(C(=O)Nc4ccc(F)cc4)CC3)cc2F)ccn1)C1CC1` [Altiratinib] (10 µM) is 0; for `COc1ccc(Cl)cc1NC(=O)Nc1cc(C)nc2ccccc12` (2.5 µM) it is 0; for `COc1ccc(CC(=O)Nc2nc3c(s2)CCc2ccccc2-3)cc1OC` (10 µM) it is 0.

In the case of `N[C@H](Cc1c[nH]c2ccccc12)C(=O)N/N=C/c1ccc2nccnc2c1` [Rhosin (hydrochloride)] (10 µM), the “number of time points” value worked out at 0. The figure for `CC(C)(C)c1ccc(S(=O)(=O)Nc2ccc(-n3ccnc3)cc2)cc1` (10 µM) is 0; for `Cc1ccc(-c2c(C(=O)CF)n(CCCO)c3ncnc(N)c23)cc1` (10 µM) it is 0.
